Here are results for one substance from publication PMC5024437.

Sequences of proteins named here, by UniProt entry; tags and fusion partners are left off.
UniProt Q12929: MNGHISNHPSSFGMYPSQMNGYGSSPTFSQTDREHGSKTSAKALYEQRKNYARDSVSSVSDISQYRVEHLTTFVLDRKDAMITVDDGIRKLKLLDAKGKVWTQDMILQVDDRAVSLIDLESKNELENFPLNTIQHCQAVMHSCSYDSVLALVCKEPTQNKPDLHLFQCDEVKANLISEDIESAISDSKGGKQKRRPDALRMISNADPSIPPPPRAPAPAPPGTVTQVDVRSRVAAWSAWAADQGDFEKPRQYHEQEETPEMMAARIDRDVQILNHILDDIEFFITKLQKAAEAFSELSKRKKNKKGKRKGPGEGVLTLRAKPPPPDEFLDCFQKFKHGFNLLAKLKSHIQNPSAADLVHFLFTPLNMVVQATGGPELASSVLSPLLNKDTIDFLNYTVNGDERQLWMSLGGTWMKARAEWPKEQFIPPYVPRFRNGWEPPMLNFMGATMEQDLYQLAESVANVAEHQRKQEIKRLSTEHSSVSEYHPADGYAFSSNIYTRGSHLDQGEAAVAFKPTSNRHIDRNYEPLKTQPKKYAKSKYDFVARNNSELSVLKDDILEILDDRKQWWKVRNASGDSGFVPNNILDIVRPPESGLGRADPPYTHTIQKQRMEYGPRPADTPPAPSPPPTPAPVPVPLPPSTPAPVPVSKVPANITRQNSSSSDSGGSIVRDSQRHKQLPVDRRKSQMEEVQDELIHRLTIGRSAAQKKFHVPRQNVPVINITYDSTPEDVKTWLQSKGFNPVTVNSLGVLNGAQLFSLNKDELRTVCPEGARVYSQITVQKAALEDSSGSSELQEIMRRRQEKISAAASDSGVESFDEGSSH

This test concerns the target Cbl E3 ubiquitin ligase (human (endogenous in A549)) (UniProt P22681). Kind of test: co-IP; A549 and A549 + ITSN-1s (stable myc-ITSN-1s) cell lysates, 500 ug total protein, lysis buffer 50 mM Tris-HCl pH 8.0, 150 mM NaCl, 1 % NP-40; IP with 3 ug mSos1 or Cbl Ab and protein A/G, WB with Rac1 or Eps8 Ab; densitometry as percentage of control.

No constants are given. Whether binding was seen depends on the method and setting. In cells and extracts the contact can be indirect. Some results given as binding are weak or reduced against the parent protein; the word gives no strength.

In the case of Eps8 (from UniProt Q12929 1-822), the binding result was “binds”.
